No constants are given. Whether binding was seen depends on the method and setting. A result given as binding can be weak or reduced; the word gives no strength.
Target: human FM-3 (human)
Test: conclusion drawn from the receptor binding test and the calcium assay

binding: binds
Binder: ILQRGSGTAAVDFTKKDHTATWGRPFFLFRPRN [human neuromedin S]

Reference: patent US20080124335A1 (NATIONAL CEREBRAL AND CARDIOVASCULAR CENTER, published 2008)
